# Laboratory results: patent US20230277618A1 (BROAD INSTITUTE, published 2023)
# Chains of the proteins cited; added tags and fusions are not shown.
# UniProt Q9ULH0: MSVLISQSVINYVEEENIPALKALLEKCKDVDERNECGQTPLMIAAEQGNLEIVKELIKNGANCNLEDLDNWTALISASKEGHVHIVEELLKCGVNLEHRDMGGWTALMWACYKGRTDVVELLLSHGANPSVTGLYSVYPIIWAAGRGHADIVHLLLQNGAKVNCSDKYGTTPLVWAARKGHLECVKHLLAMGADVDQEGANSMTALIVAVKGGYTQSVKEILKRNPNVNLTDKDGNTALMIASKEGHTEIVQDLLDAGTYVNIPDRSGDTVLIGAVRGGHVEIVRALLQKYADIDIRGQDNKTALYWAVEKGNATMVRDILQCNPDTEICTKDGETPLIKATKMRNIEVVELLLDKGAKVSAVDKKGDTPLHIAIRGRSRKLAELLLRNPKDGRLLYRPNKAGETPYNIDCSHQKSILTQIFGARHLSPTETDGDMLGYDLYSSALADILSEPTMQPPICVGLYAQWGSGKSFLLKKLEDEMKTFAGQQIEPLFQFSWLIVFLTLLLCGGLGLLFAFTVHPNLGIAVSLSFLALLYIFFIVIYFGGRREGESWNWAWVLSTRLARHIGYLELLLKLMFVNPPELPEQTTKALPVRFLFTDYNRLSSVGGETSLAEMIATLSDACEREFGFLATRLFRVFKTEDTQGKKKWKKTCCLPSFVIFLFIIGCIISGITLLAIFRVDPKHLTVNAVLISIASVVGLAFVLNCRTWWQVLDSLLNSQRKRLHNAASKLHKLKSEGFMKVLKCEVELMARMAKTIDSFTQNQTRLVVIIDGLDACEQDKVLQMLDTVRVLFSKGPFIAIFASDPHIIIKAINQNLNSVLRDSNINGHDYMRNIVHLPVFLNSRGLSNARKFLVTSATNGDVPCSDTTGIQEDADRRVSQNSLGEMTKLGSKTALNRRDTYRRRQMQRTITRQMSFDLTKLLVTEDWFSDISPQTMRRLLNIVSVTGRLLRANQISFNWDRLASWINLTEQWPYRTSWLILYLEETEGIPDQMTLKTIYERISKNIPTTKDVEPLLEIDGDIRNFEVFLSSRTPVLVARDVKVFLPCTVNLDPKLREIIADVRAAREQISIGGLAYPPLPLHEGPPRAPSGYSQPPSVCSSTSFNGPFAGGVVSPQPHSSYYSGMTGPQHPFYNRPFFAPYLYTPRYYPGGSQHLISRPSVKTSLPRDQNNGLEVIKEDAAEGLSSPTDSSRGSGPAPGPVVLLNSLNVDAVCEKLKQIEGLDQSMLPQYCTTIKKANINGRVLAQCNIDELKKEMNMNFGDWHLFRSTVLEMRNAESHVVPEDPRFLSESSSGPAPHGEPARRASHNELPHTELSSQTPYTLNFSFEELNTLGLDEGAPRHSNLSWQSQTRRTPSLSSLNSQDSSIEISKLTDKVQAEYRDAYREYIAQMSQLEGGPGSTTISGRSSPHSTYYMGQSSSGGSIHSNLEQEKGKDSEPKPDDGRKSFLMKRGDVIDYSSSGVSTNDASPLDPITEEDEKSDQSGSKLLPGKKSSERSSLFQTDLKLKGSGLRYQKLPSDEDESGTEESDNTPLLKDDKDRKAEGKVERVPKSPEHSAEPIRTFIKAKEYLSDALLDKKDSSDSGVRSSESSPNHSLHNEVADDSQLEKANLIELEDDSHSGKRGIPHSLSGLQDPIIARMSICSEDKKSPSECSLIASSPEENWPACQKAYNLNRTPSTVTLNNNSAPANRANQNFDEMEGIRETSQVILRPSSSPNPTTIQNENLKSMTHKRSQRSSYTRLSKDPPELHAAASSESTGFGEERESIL
# No constants are given. Whether binding was seen depends on the method and setting. Some results given as binding are weak or reduced against the parent protein; the word gives no strength.
# B1: XPR1 (xenotropic and polytropic retrovirus receptor 1), endogenous or re-expressed wildtype human XPR1 on cells (receptor)
# chain: MKFAEHLSAHITPEWRKQYIQYEAFKDMLYSAQDQAPSVEVTDEDTVKRYFAKFEEKFFQTCEKELAKINTFYSEKLAEAQRRFATLQNELQSSLDAQKESTGVTTLRQRRKPVFHLSHEERVQHRNIKDLKLAFSEFYLSLILLQNYQNLNFTGFRKILKKHDKILETSRGADWRVAHVEVAPFYTCKKINQLISETEAVVTNELEDGDRQKAMKRLRVPPLGAAQPAPAWTTFRVGLFCGIFIVLNITLVLAAVFKLETDRSIWPLIRIYRGGFLLIEFLFLLGINTYGWRQAGVNHVLIFELNPRSNLSHQHLFEIAGFLGILWCLSLLACFFAPISVIPTYVYPLALYGFMVFFLINPTKTFYYKSRFWLLKLLFRVFTAPFHKVGFADFWLADQLNSLSVILMDLEYMICFYSLELKWDESKGLLPNNSEESGICHKYTYGVRAIVQCIPAWLRFIQCLRRYRDTKRAFPHLVNAGKYSTTFFMVTFAALYSTHKERGHSDTMVFFYLWIVFYIISSCYTLIWDLKMDWGLFDKNAGENTFLREEIVYPQKAYYYCAIIEDVILRFAWTIQISITSTTLLPHSGDIIATVFAPLEVFRRFVWNFFRLENEHLNNCGEFRAVRDISVAPLNADDQTLLEQMMDQDDGVRNRQKNRSWKYNQSISLRRPRLASQSKARDTKVLIEDTDDEANT
# Biological target: KIDINS220 (kinase D interacting substrate 220), endogenous in HEK-293T cells (human) (UniProt Q9ULH0)
# Assay: western blot of 293T cells with stable knockout of XPR1 or KIDINS220
binder,measurement,value
B1,binding,binds
